Experimental data published in paper PMC8698616.
Results are given in words; binding and its absence hold for the method and conditions named. In cells and extracts the contact can be indirect.

Legend:
[1] = molecular target: T1, LEA29 (Arabidopsis thaliana (Col-0)) (UniProt Q9LW12); experiment: split reporter; 2in1 ratiometric BiFC (rBiFC, vector pBiFCt-2in1-CC) in N. benthamiana leaves, 4 d after Agrobacterium infiltration with p19; confocal microscopy; relative YFP/RFP fluorescence ratio with cut-off above 80% (n = 15-25); LEA gene at the attR1-R4 site alone as negative control
T1 sequence: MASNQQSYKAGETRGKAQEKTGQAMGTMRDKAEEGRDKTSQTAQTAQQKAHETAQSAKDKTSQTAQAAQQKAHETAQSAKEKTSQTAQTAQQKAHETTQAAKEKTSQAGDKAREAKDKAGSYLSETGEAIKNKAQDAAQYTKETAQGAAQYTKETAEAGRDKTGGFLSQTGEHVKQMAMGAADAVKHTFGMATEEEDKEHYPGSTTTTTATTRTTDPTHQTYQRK

[2] = molecular target: T2, LEA7 (Arabidopsis thaliana (Col-0)) (UniProt Q96270); experiment: as above
T2 sequence: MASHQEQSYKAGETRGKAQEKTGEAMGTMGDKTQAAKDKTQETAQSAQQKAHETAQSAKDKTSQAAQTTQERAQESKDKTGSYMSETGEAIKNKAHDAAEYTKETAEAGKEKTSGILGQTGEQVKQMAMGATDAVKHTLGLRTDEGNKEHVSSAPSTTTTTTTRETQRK

binding [1]: no binding | binding [2]: no binding
Substance: LEA28 (Arabidopsis thaliana (Col-0))
